Laboratory results: US12617831B2 (UNIVERSITE D'ANGERS, priority 2019, dated 2026)
Where a sequence shows no end group, the ends are not given.

Assay: peptide made by a vendor (Fmoc solid-phase peptide synthesis)
Settings: whole synthesis, high performance liquid chromatography; composition by mass spectrometry

HADGTFISDYSTILDNLAARDFINWLIQTKITD
final HPLC purity: 95.30%
